Here are results for 19 compounds from the supplement of paper PMC7024190.

Counter-ions that a name gives are not always drawn. Some of the results follow. Repeats in this data set agree poorly, so a single value says little.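 A first-round screen of about ten thousand compounds sought those raising reporter output, using human embryonic kidney cells briefly transfected with a plasmid carrying a Renilla luciferase gene driven by the HSV-TK promoter.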

The test has as its system HEK 293FT. Kind of test: log relative Renilla luciferase luminescence (reporter expression vs reference, reference not stated) (log (base not stated)); higher = higher recombinant reporter expression. As to conditions: 10 µM; time after transfection 48 h.
Take `C[C@H]1O[C@@H](O[C@H]2[C@@H](O)C[C@H](O[C@H]3[C@@H](O)C[C@H](O[C@H]4CC[C@@]5(C)[C@H](CC[C@@H]6[C@@H]5CC[C@]5(C)[C@@H](C7=CC(=O)OC7)[C@@H](O)C[C@]65O)C4)O[C@@H]3C)O[C@@H]2C)C[C@H](O)[C@@H]1O` [gitoxin]: the log was -1.28.
For `C=C[C@H]1CN2CC[C@H]1C[C@H]2[C@H](O)c1ccnc2ccccc12` [cinchonidine] the value was 0.179; for `CNNC` [1,2-dimethylhydrazine hydrochloride], -0.0363.
Then `O=C1C=CC(=O)c2c(O)cccc21` [juglone], with -0.246; and `OC[C@@H]1CCCN2CCCC[C@H]12` [lupinine], with -0.291; and `C=CC[C@]1(O)CC[C@H]2[C@@H]3CCC4=CC(=O)CCC4=C3C=C[C@@]21C` [altrenogest], with 0.0398.
For `COc1cc(OC)c2c(c1)O[C@H](c1ccc(OC)c(OC)c1)[C@@H](O)C2` [catechin tetramethylether] the value was 0.00551; for `C=C[C@H]1CN2CC[C@H]1C[C@@H]2[C@@H](O)c1ccnc2ccccc12` [cinchonine], 0.172; for `C=CCN=C=S` [allylisothiocyanate], -1.47.
With `CC(Cc1ccc(O)cc1)NCC(O)c1cc(O)cc(O)c1` (centres undefined) [fenoterol hydrobromide], the log was -0.00743.
Then `C1CCc2nnnn2CC1` [pentylenetetrazol], with -0.17; and `C[C@]12CC[C@@H](O)C[C@@H]1CC[C@@H]1[C@@H]2CC[C@]2(C)C(=O)CC[C@@H]12` [androsterone], with 0.0279; and `CC(=O)O[C@@H]1C[C@@]2(C)[C@H](c3ccoc3)C[C@H]3O[C@]32[C@]2(C)C(=O)C(O)=C3C(C)(C)C(=O)C=C[C@]3(C)[C@@H]12` [anthothecol], with -1.67.
For `O=c1[nH]c2ccccc2n1CCCN1CCC(n2c(=O)[nH]c3cc(Cl)ccc32)CC1` [domperidone] the value was 0.0224; for `COC(=O)C1=CO[C@@H](C)[C@H]2CN3CC[C@]4(C(=O)Nc5ccccc54)[C@@H]3C[C@H]12` [mitraphylline], 0.0516.
Then `N#C/C(=C\c1cccc(O)c1)C(=O)O` [alpha-cyano-3-hydroxycinnamic acid], with -0.0684; and `O=C([O-])c1ccccc1-c1c2cc(Br)c(=O)cc-2oc2[c]([Hg+])c([O-])c(Br)cc12.[Na+].[Na+].[OH-]` [merbromin], with -0.0681; and `CC(C)[N+](C)(CCC(C(N)=O)(c1ccccc1)c1ccccc1)C(C)C` [isopropamide iodide], with 0.166.
Consider `C#C[C@]1(O)CC[C@H]2[C@@H]3CCC4=CC(=O)CC[C@]4(C)[C@H]3CC[C@@]21C` [ethisterone], for which the log came to 0.0795.
